# Test results reported in patent publication EP2753335B1, “AN ANTHRACYCLINE FOR THE TREATMENT OF SEPSIS” (Instituto de Medicina Molecular, priority 2011, dated 2013).
# Structures can show the parent of a compound that is named as a salt. For at least one compound, name, drawing or mass did not settle the structure.
# System: C57BL/6 mice subjected to CLP
# Assay: Cecal ligation and puncture (CLP) mouse model of severe sepsis, survival
# Type: in vivo
# Experimental: We choose the cecal ligation and puncture (CLP) mouse model to investigate the in vivo effects of epirubicin. In CLP, sepsis results from a polymicrobial infectious abdominal origin, leading to bacteraemia and a systemic inflammatory response^15.
# Animal care and experimental procedures were conducted in accordance with Portuguese and US guidelines and regulations after approval by the respective local committees (Instituto de Medicina Molecular and Instituto Gulbenkian de Ciência). All mice used were 8-12 weeks old. Mice were bred and maintained under specific pathogen-free (SPF) conditions. C57BL/6 and C57BL/6 ATM^-/- were obtained from the Instituto Gulbenkian de Ciência (a kind gift from Dr. Vasco Barreto). C57BL/6 Nrf2^-/- mice were provided originally from the RIKEN BioResource Center (Koyadai, Tsukuba, Ibaraki, Japan)^31 and subsequently at the Institute Gulbenkian de Ciência. Cecal Ligation and Puncture was performed as described previously^15.
# [1] = no meropenem, 0.6µg/g body weight
compound,measurement,setting,value
COc1cccc2c1C(=O)c1c(O)c3c(c(O)c1C2=O)C[C@@](O)(C(=O)CO)C[C@@H]3O[C@H]1C[C@H](N)[C@@H](O)[C@H](C)O1 [Epirubicin hydrochloride],"protection against CLP in combination with meropenem, given until at least 24hrs after the procedure","meropenem 40µg/g body weight/day, even if started 12hrs after CLP, low dose epirubicin",complete protection
same,"protection against CLP, given alone at the time of the procedure or until 3hrs after",[1],strong protection
same,"protection against CLP, given alone only 6hrs after CLP",[1],quickly loses its protective effect
